Data published in the supplement of paper PMC10338343.
± gives the standard deviation. The list shows a part of the results, in another mix than the full data. Many of these values have a large error.

system: MIWI (PIWIL1) piRISC loaded with L1MC piRNA (30 nt); assay: pre-steady-state target cleavage rate (min^-1); MIWI and MILI are mouse PIWI proteins and EfPiwi is from a freshwater sponge; tags in brackets are library labels; higher = faster piRNA-guided slicing of the target; details: guide: L1MC piRNA 5'p-UAACUAAAUACUAUGCAAGCUGUAGGUCCU; auxiliary factor: 500 nM mouse GTSF1
How it was run: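 A transcribed, DNA-blocked target RNA library […] was incubated at 33 °C for 0–8 or 0–960 min with 1 nM active affinity-purified piRISC carrying one synthetic guide, in HEPES–potassium acetate buffer with or without 500 nM GTSF1 partner protein. Uncleaved targets were then sequenced and normalised to depth and to weakly complementary targets. Data from three trials were pooled, with k3 capped at 0.0001 min^-1, and a burst-and-steady-state fit yielded the pre-steady-state cleavage rate.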
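Further: 1 nM active piRISC with 0.1 nM target library at 33 °C single turnover.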

| Sequence | pre-steady-state target cleavage rate |
| --- | --- |
| UCCUGGAUGUGCUUGCAAUAGUAUUUAGUUA | 0.00341 ± 0.0039 |
| UCCUGGAUGUCGAAGCAUAGUCAUUUAGUUA | 0.0028 ± 0.0038 |
| UCCUGGAUGAGCUUGCACUAGUAUUUAGUUA | 0.00113 ± 0.0079 |
| UCCUGGAUGACGCUUGCAUAGUAUUUAGUUA | 0.911 ± 0.059 |
| UCCUGGAUGUGCUUGCAUAGUAUAAAGAAA | 0.000724 ± 0.016 |
| UCCUGGAUGAGCUUGCUUAGAAUUUAGUUA | 0.0359 ± 0.0063 |
| UCCUGGAUCAGCUUGCAUAGUUUUAGUUA | 0.00262 ± 0.0043 |
| UCCUGGAUGUGGUUGCUUAGUAUUUAGUUA | 0.00328 ± 0.0059 |
| UCCUGGAUGAGCUUGCAUAGUAAAAACAAA | 0.000655 ± 0.018 |
| UCCUGGAUCAGCUUGCAUAGUAUUAUGUAA | 0.0189 ± 0.0065 |
| UCCUGGAUGUGCUUGCAUACUUUUUAGUUA | 0.00313 ± 0.0059 |
| UCCUGGAUGUCGUUGCAUAGUUUUAGUUA | 0.000514 ± 0.023 |
| UCCUGGAUGAGGUUGCAUAGUAUUUACAAA | 0.000245 ± 0.03 |
| UCCUGGAUGUCGUUGCAUAGUUUUUAGUUA | 0.00172 ± 0.0078 |
| UCCUGGAUGUCGUUGCUAUAGUAUUUAGUUA | 0.000177 ± 0.027 |
| UCCUGGAUGUCCUUGCAUAGUAUUUUCUAA | 0.00274 ± 0.0055 |
| UCCUGGAUGUCGUUGCGUAGUAUUUAGUUA | 0.00186 ± 0.0055 |
| UCCUGGAUGUCCUUGCAUAGAUUUAGUUA | 0.00386 ± 0.0041 |
| UCCUGGAUGUGCUUGCUAUGUAUUUAGUAA | 0.00114 ± 0.0092 |
| UCCUGGAACAGGUUGCAUAGUUUUUAGUUA | 0.167 ± 0.016 |

| Sequence | pre-steady-state target cleavage rate |
| --- | --- |
| UCCUGGAUGAGCUUGCAUACAAUUUAGUUA | 0.00302 ± 0.0041 |
| UCCUGGAUGUCGAACCAUAGUAUUUAGUUA | 0.00135 ± 0.0031 |
| UCCUGGAUGUCGAAGCCUAGUAUUUAGUUA | 0.000229 ± 0.028 |
| UCCUGGAUCAGCUUGCAUACAUUUUAGUUA | 0.00149 ± 0.0079 |
| UCCUGGAACAGCUACGAUAGUAUUUACAAA | 0.000946 ± 0.011 |
| UCCUCCUACAGCUUGCAAAGUUUUUAGUUA | 0.352 ± 0.029 |
| UCCUGGAUGUGGUUGCAUACUAUUUAGUUA | 0.00469 ± 0.006 |
| UCCUGGAUGUCGAAGCAUAGUUUUUAGUUA | 0.0012 ± 0.0088 |
| UCCUGGAUGUCGAACCAUUGAAUUUAGUUA | 0.000364 ± 0.0084 |
| UCCUGCUACAGCUUGGUAAGUAUUUAGAAA | 0.00235 ± 0.0044 |
| UCCUGGAUCAGCUUGCAUAGUUUUUUCAAA | 0.00403 ± 0.0041 |
| UCCUGGAUGAGCUUGCAUAGAUAUUAGUUA | 0.00099 ± 0.0083 |
| UCCUGGAUGAGCUUGCAUAAGUAUUUAGUUA | 0.00151 ± 0.0077 |
| UCCUGGAUGAGCUUGCAUAGUAAAAAGAAA | 0.000915 ± 0.011 |
| UCCUGGAUGUCGAUGCAAUAGUAUUUAGUUA | 0.000666 ± 0.011 |
| UCCUGGAUGUGCUUGCAUAGUUUUAGUUA | 0.0028 ± 0.0052 |
| UCCUGGAUGAGCUACCAUAGUAUUUAGUAA | 0.00153 ± 0.0068 |
| UCCUGGUUACAGCUUGCAUAGUAUUUAGUUA | 1.01 ± 0.048 |
| UCCUGGAUGUCCUUGCAUAGUUUUAAGUUA | 0.00271 ± 0.0057 |
| UCCUGGAUGUGCUUGCAUAGAUUUAGUUA | 0.00287 ± 0.0053 |

same assay, conditions: guide: L1MC piRNA 5'p-UAACUAAAUACUAUGCAAGCUGUAGGUCCU; auxiliary factor: none (no GTSF1)

| Sequence | pre-steady-state target cleavage rate |
| --- | --- |
| UCCUGGAUGUGCUUGCAAUAGUAUUUAGUUA | 0.00121 ± 0.007 |
| UCCUGGAUGUCGAAGCAUAGUCAUUUAGUUA | 0.0028 ± 0.0032 |
| UCCUGGAUGAGCUUGCACUAGUAUUUAGUUA | 0.000988 ± 0.0065 |
| UCCUGGAUGACGCUUGCAUAGUAUUUAGUUA | 0.0648 ± 0.0085 |
| UCCUGGAUGUGCUUGCAUAGUAUAAAGAAA | 0.000829 ± 0.01 |
| UCCUGGAUGAGCUUGCUUAGAAUUUAGUUA | 0.00574 ± 0.0024 |
| UCCUGGAUCAGCUUGCAUAGUUUUAGUUA | 0.00157 ± 0.0032 |
| UCCUGGAUGUGGUUGCUUAGUAUUUAGUUA | 0.00312 ± 0.0034 |
| UCCUGGAUGAGCUUGCAUAGUAAAAACAAA | 0.000341 ± 0.013 |
| UCCUGGAUCAGCUUGCAUAGUAUUAUGUAA | 0.00377 ± 0.0026 |
| UCCUGGAUGUGCUUGCAUACUUUUUAGUUA | 0.00252 ± 0.0038 |
| UCCUGGAUGUCGUUGCAUAGUUUUAGUUA | 0.00179 ± 0.0038 |
| UCCUGGAUGAGGUUGCAUAGUAUUUACAAA | 0.00066 ± 0.01 |
| UCCUGGAUGUCGUUGCAUAGUUUUUAGUUA | 0.00234 ± 0.0036 |
| UCCUGGAUGUCGUUGCUAUAGUAUUUAGUUA | 0.000617 ± 0.013 |
| UCCUGGAUGUCCUUGCAUAGUAUUUUCUAA | 0.00187 ± 0.0041 |
| UCCUGGAUGUCGUUGCGUAGUAUUUAGUUA | 0.00259 ± 0.004 |
| UCCUGGAUGUCCUUGCAUAGAUUUAGUUA | 0.00164 ± 0.0034 |
| UCCUGGAUGUGCUUGCUAUGUAUUUAGUAA | 0.00133 ± 0.0051 |
| UCCUGGAACAGGUUGCAUAGUUUUUAGUUA | 0.0162 ± 0.0044 |

| Sequence | pre-steady-state target cleavage rate |
| --- | --- |
| UCCUGGAUGAGCUUGCAUACAAUUUAGUUA | 0.00113 ± 0.0037 |
| UCCUGGAUGUCGAACCAUAGUAUUUAGUUA | 0.000447 ± 0.0084 |
| UCCUGGAUGUCGAAGCCUAGUAUUUAGUUA | 0.000234 ± 0.0093 |
| UCCUGGAUCAGCUUGCAUACAUUUUAGUUA | 0.00132 ± 0.0051 |
| UCCUGGAACAGCUACGAUAGUAUUUACAAA | 0.00111 ± 0.007 |
| UCCUCCUACAGCUUGCAAAGUUUUUAGUUA | 0.0137 ± 0.0033 |
| UCCUGGAUGUGGUUGCAUACUAUUUAGUUA | 0.00133 ± 0.0064 |
| UCCUGGAUGUCGAAGCAUAGUUUUUAGUUA | 0.00125 ± 0.0051 |
| UCCUGGAUGUCGAACCAUUGAAUUUAGUUA | 0.000375 ± 0.014 |
| UCCUGCUACAGCUUGGUAAGUAUUUAGAAA | 0.000234 ± 0.013 |
| UCCUGGAUCAGCUUGCAUAGUUUUUUCAAA | 0.00113 ± 0.0049 |
| UCCUGGAUGAGCUUGCAUAGAUAUUAGUUA | 0.000354 ± 0.0083 |
| UCCUGGAUGAGCUUGCAUAAGUAUUUAGUUA | 0.000368 ± 0.01 |
| UCCUGGAUGAGCUUGCAUAGUAAAAAGAAA | 0.000366 ± 0.0077 |
| UCCUGGAUGUCGAUGCAAUAGUAUUUAGUUA | 0.000721 ± 0.0089 |
| UCCUGGAUGUGCUUGCAUAGUUUUAGUUA | 0.00176 ± 0.0052 |
| UCCUGGAUGAGCUACCAUAGUAUUUAGUAA | 0.000968 ± 0.0096 |
| UCCUGGUUACAGCUUGCAUAGUAUUUAGUUA | 0.0561 ± 0.011 |
| UCCUGGAUGUCCUUGCAUAGUUUUAAGUUA | 0.00233 ± 0.0036 |
| UCCUGGAUGUGCUUGCAUAGAUUUAGUUA | 0.00169 ± 0.004 |
